PubChem BioAssay AID226 (DTP/NCI, 2004)
The list does not hold the whole screen: it is rich in T/C values a quarter to a half above the control, in often repeated tests (any T/C) and in doses without a T/C. Further doses and runs are listed elsewhere. T/C gives the treated animals as a percentage of the vehicle group. Some entries give survivors of the animals treated and no T/C: the source files T/C as zero there, which appears to mark a toxic dose or a test without result, not a measured value. Some doses without a T/C left all or most animals alive at the check, yet need not have been tolerated: the source hardly ever lists a survival T/C far under the control, and the zero likely stands for such cases as well. Counts of survivors are from the toxicity check (mostly the fifth day) where no day follows; animals may have died later. Schedule codes are those of the source, taken here to give the interval after Q, in days (D) or hours (H), and the number of doses after X. Brackets with × stand for listed records that agree. Some entries hold several experiments; the results are listed from low to high. Some schedules carry Z or #; the key to these is not given. Where survival is the endpoint, this PubChem deposit counts one and a half times the control or more as active, and values a quarter to a half above the control carry no call in these data; other NCI protocols may use other cut-offs. Some T/C values are followed by the survivors on the day toxicity was checked, most often the fifth; where none is given, no animal had died by that day.

System: B6C3F1 mice, intracerebral ependymoblastoma, median survival T/C
Test: NCI In Vivo Anticancer Drug Screen. Data for tumor model Ependymoblastoma (intracerebral) in B6C3F1 mice
Settings: T/C endpoint: median survival time, higher T/C = longer survival
Protocol: The antitumor activity of compounds was measured in mice bearing transplantable tumors. Survival or tumor size were measured and the results are expressed as the measurement made in the treated group (T) divided by the measurement made in the vehicle treated control group (C). The tumor model used in this assay is Ependymoblastoma (intracerebral) in B6C3F1 mice

[1] = dose: 200.0 mg/kg/injection, schedule: Q01DX005 (ip), vehicle: Klucel (hydroxypropylcellulose) (HPC)
[2] = dose: 400.0 mg/kg/injection, schedule: Q01DX005 (ip), vehicle: Klucel (hydroxypropylcellulose) (HPC)
[3] = dose: 128.0 mg/kg/injection, schedule: Q01DX005 (ip), vehicle: saline
[4] = dose: 100.0 mg/kg/injection, schedule: Q01DX001 (ip), vehicle: Klucel (hydroxypropylcellulose) (HPC)
[5] = dose: 200.0 mg/kg/injection, schedule: Q01DX001 (ip), vehicle: Klucel (hydroxypropylcellulose) (HPC)
[6] = dose: 400.0 mg/kg/injection, schedule: Q01DX001 (ip), vehicle: Klucel (hydroxypropylcellulose) (HPC)
[7] = dose: 800.0 mg/kg/injection, schedule: Q01DX001 (ip), vehicle: Klucel (hydroxypropylcellulose) (HPC)
[8] = dose: 256.0 mg/kg/injection, schedule: Q01DX005 (ip), vehicle: saline with Tween-80
[9] = dose: 2048.0 mg/kg/injection, schedule: Q01DX001 (ip), vehicle: saline

COc1nc(C(Cl)(Cl)Cl)c(Cl)c(OC)c1Cl
survivor count [1]: 9 of 10
survivor count [2]: 3 of 10

N=[N+]=CC(=O)CCC(NC(=O)C(CCC(=O)C=[N+]=N)NC(=O)CCC(N)C(=O)O)C(=O)O (stereo not drawn)
T/C (dose: 0.1 mg/kg/injection, schedule: Q01DX001 (ip), vehicle: Klucel (hydroxypropylcellulose) (HPC)): 99, 105 [survivors not given], 109 % of control [survivors not given] (2×)
T/C (dose: 0.2 mg/kg/injection, schedule: Q01DX001 (ip), vehicle: Klucel (hydroxypropylcellulose) (HPC)): 97 [survivors not given], 99, 102 [survivors not given], 105 % of control [survivors not given]
T/C (dose: 0.4 mg/kg/injection, schedule: Q01DX001 (ip), vehicle: Klucel (hydroxypropylcellulose) (HPC)): 97, 100 [survivors not given], 101 [survivors not given], 103 % of control [survivors not given]
T/C (dose: 0.8 mg/kg/injection, schedule: Q01DX001 (ip), vehicle: Klucel (hydroxypropylcellulose) (HPC)): 100, 107 [survivors not given], 108 [survivors not given], 111 % of control [survivors not given]

COc1cc([C@@H]2c3cc4c(cc3[C@@H](OC3OC5COC(C)OC5C(O)C3O)[C@H]3COC(=O)[C@H]23)OCO4)cc(OC)c1O (stereo partly drawn)
T/C (dose: 8.0 mg/kg/injection, schedule: Q01DX005 (ip), vehicle: suspension in saline, evaluated on day 45): 127 % of control
T/C (dose: 8.0 mg/kg/injection, schedule: Q01DX005 (ip), vehicle: suspension in saline, evaluated on day 60): 127 % of control
T/C (dose: 16.0 mg/kg/injection, schedule: Q01DX005 (ip), vehicle: suspension in saline): 132 % of control
survivor count (dose: 32.0 mg/kg/injection, schedule: Q01DX005 (ip), vehicle: suspension in saline): 10 of 10
survivor count (dose: 64.0 mg/kg/injection, schedule: Q01DX005 (ip), vehicle: suspension in saline): 6 of 10

CCCC(=O)OCC1OC(n2cnc3c(=S)nc[nH]c32)C(OC(=O)CCC)C1OC(=O)CCC (stereo not drawn)
survivor count (dose: 100.0 mg/kg/injection, schedule: Q01DX005 (ip), vehicle: saline with Tween-80): 10 of 10
survivor count (dose: 200.0 mg/kg/injection, schedule: Q01DX005 (ip), vehicle: saline with Tween-80): 10 of 10

CCN(CC)CCOc1ccc(/C(=C(\Cl)c2ccccc2)c2ccccc2)cc1
survivor count [3]: 3 of 10 and 8 of 10

C(COCCOCC1CO1)OCCOCC1CO1 (stereo not drawn)
T/C (dose: 200.0 mg/kg/injection, schedule: Q01DX005 (ip), vehicle: saline): 127 % of control

COc1ccc2cc1Oc1ccc(cc1)C[C@H]1c3cc(c(OC)cc3CCN1C)Oc1c(OC)c(OC)cc3c1[C@H](C2)N(C)CC3
T/C [4]: 98 [survivors not given], 100, 100 [survivors not given], 105 % of control [survivors not given]
T/C [5]: 97 [survivors not given], 103, 105 [survivors not given], 123 % of control [survivors not given]
T/C [6]: 94 [survivors not given], 95 [survivors not given], 104, 114 % of control [survivors not given]
T/C [7]: 92 [survivors not given], 99, 103 [survivors not given], 109 % of control [survivors not given]

CCCCCCC1CC1C(=O)NCCCCCN=C(N)N (stereo not drawn)
survivor count (dose: 80.0 mg/kg/injection, schedule: Q01DX005 (ip), vehicle: Klucel (hydroxypropylcellulose) (HPC)): 1 of 10

C[C@@H](CN1CC(=O)NC(=O)C1)N1CC(=O)NC(=O)C1
T/C (dose: 32.0 mg/kg/injection, schedule: Q01DX005 (ip), vehicle: saline with Tween-80): 126 % of control
T/C (dose: 64.0 mg/kg/injection, schedule: Q01DX005 (ip), vehicle: saline with Tween-80): 129 % of control
T/C (dose: 64.0 mg/kg/injection, schedule: Q01DX005 (ip), vehicle: saline): 134 % of control
survivor count (dose: 64.0 mg/kg/injection, schedule: Q01DX005 (oral), vehicle: saline): 10 of 10
T/C (dose: 64.0 mg/kg/injection, schedule: Q## X006 (ip), vehicle: saline): 135 % of control
T/C [3]: 125 % of control
survivor count (dose: 128.0 mg/kg/injection, schedule: Q01DX005 (oral), vehicle: saline): 10 of 10
T/C (dose: 128.0 mg/kg/injection, schedule: Q## X006 (ip), vehicle: saline): 142 % of control
survivor count [8]: 10 of 10
T/C (dose: 256.0 mg/kg/injection, schedule: Q01DX005 (ip), vehicle: water): 127 % of control [8 of 10 alive]
survivor count (dose: 256.0 mg/kg/injection, schedule: Q01DX005 (oral), vehicle: saline): 5 of 10 and 10 of 10
T/C (dose: 256.0 mg/kg/injection, schedule: Q## X004 (ip), vehicle: saline): 135 % of control
T/C (dose: 256.0 mg/kg/injection, schedule: Q## X006 (ip), vehicle: saline): 146 % of control
T/C (dose: 512.0 mg/kg/injection, schedule: Q01DX001 (ip), vehicle: saline): 125 % of control
T/C (dose: 512.0 mg/kg/injection, schedule: Q01DX001 (oral), vehicle: saline): 126 % of control [9 of 10 alive]
survivor count (dose: 512.0 mg/kg/injection, schedule: Q01DX005 (ip), vehicle: saline): 9 of 10 and 10 of 10
survivor count (dose: 512.0 mg/kg/injection, schedule: Q01DX005 (oral), vehicle: saline): 10 of 10 (2×)
T/C (dose: 512.0 mg/kg/injection, schedule: Q## X004 (ip), vehicle: saline): 142 % of control
survivor count (dose: 512.0 mg/kg/injection, schedule: Q## X006 (ip), vehicle: saline): 10 of 10
T/C (dose: 1024.0 mg/kg/injection, schedule: Q01DX001 (ip), vehicle: saline): 128 % of control [9 of 10 alive]
T/C (dose: 1024.0 mg/kg/injection, schedule: Q01DX001 (oral), vehicle: saline): 126 and 128 % of control [9 of 10 alive]
survivor count (dose: 1024.0 mg/kg/injection, schedule: Q01DX005 (ip), vehicle: Klucel (hydroxypropylcellulose) (HPC)): 10 of 10
survivor count (dose: 1024.0 mg/kg/injection, schedule: Q01DX005 (ip), vehicle: saline with Tween-80): 9 of 10
survivor count (dose: 1024.0 mg/kg/injection, schedule: Q01DX005 (oral), vehicle: saline): 9 of 10
survivor count (dose: 1024.0 mg/kg/injection, schedule: Q## X004 (ip), vehicle: saline): 10 of 10
T/C [9]: 130 and 136 % of control
survivor count [9]: 5 of 10
survivor count (dose: 2048.0 mg/kg/injection, schedule: Q01DX001 (oral), vehicle: saline): 8 of 10
survivor count (dose: 2048.0 mg/kg/injection, schedule: Q01DX005 (oral), vehicle: saline): 10 of 10
survivor count (dose: 2048.0 mg/kg/injection, schedule: Q## X004 (ip), vehicle: saline): 7 of 10

CC1CN1C(=O)NCCCCCCNC(=O)N1CC1C (stereo not drawn)
survivor count (dose: 20.0 mg/kg/injection, schedule: Q01DX005 (ip), vehicle: Klucel (hydroxypropylcellulose) (HPC)): 10 of 10

COc1cc(C[C@H]2c3cc(OC)c(OC)cc3CCN2C)c(Oc2cc3c(cc2OC)-c2c(OC)c(OC)cc4c2[C@H](C3)N(C)CC4)cc1OC
T/C [4]: 94, 100, 111 [survivors not given], 113 % of control [survivors not given]
survivor count (dose: 100.0 mg/kg/injection, schedule: Q01DX005 (ip), vehicle: Klucel (hydroxypropylcellulose) (HPC)): 0 of 10 and 4 of 10
T/C [5]: 103, 103 [survivors not given], 108, 112 % of control [survivors not given]
survivor count [1]: 0 of 10 and 1 of 10
T/C [6]: 94 [survivors not given], 104, 105, 107 % of control [survivors not given]
survivor count [2]: 0 of 10
T/C [7]: 100 [9 of 10 alive on day 9], 104 [survivors not given], 119 % of control [survivors not given]
survivor count [7]: 7 of 10

CC(C)NCC(O)COc1cccc2ccccc12 (stereo not drawn)
survivor count (dose: 128.0 mg/kg/injection, schedule: Q01DX005 (ip), vehicle: saline with Tween-80): 6 of 10
survivor count (dose: 128.0 mg/kg/injection, schedule: Q01DX009 (ip), vehicle: saline with Tween-80): 2 of 10
survivor count [8]: 0 of 10
survivor count (dose: 256.0 mg/kg/injection, schedule: Q01DX009 (ip), vehicle: saline with Tween-80): 0 of 10
